From patent publication US10512669B2, “Blockade of inflammatory proteases with cyclic peptides” (The Regents of the University of California, priority 2011, dated 2019)
Not every detail of the peptide structures is certain; ends, links or a residue may be inferred. Bridge positions count the residues as written; N and C are the ends. Peptide text beside a SMILES is read from it.

What was measured:
[1] = system: cytokine/chemokine release induced by TLR agonists; type: cell-based, human
IL-17A = type: cell-based, human
[2] = system: pristane-induced arthritis in DA rats; details: rat, in vivo
SARS-CoV [3] = details: mouse, in vivo; cited from earlier work
SARS-CoV [4] = details: cited from earlier work
Staphylococcus aureus = details: physiologic saline; cited from earlier work

Compound: CC[C@H](C)[C@@H]1NC(=O)[C@@H]2CSSC[C@H](NC(=O)[C@H](CCCNC(=N)N)NC(=O)[C@@H]3CSSC[C@H](NC1=O)C(=O)N[C@@H]([C@@H](C)O)C(=O)N[C@@H](CCCNC(=N)N)C(=O)NCC(=O)N[C@@H](Cc1ccccc1)C(=O)N3)C(=O)N[C@@H](CC(C)C)C(=O)N[C@H]1CSSC[C@H](NC(=O)[C@H](C(C)C)NC(=O)CNC(=O)[C@H](CCCNC(=N)N)NC(=O)[C@H](CCCNC(=N)N)NC1=O)C(=O)N[C@@H](CCCNC(=N)N)C(=O)N2 [RTD-1] (cyclo(GFCRCLCRRGVCRCICTR); disulfide 3-16, 5-14, 7-12 (inferred); ring closure inferred)
- IL-6 release stimulated by each agonist [1]: inhibited release
- IL-8 release [1]: strongly inhibited
- IL-10 release stimulated by each agonist [1]: inhibited release
- MCP-1 levels [1]: varied
- TNF-α release induced by agonists for TLR 2, 4, 5 and 8 [1]: markedly reduced
- effect on unstimulated cells [1]: essentially no effect
- reduction of IL-17A expression (IL-17A): > 85%
- animals whose arthritis severity returned to zero before 14 days of treatment [2]: 8 animals
- effectiveness in preventing death of virally-infected mice (SARS-CoV [3]): 100%
- pulmonary MCP-1 levels (SARS-CoV [3]): markedly reduced
- pulmonary inflammation and expression of pro-inflammatory cytokines (SARS-CoV [3]): reduced pulmonary inflammation
- virucidal activity against SARS-CoV (SARS-CoV [4]): not virucidal
- activity against Staphylococcus aureus (Staphylococcus aureus): retained potent killing activity
